# PubChem BioAssay AID743121 | NCATS – 2013
# Assay: 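Knock-downs that sensitise breast cancer cells to camptothecin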 (primary screen)
# Cells: MDA-MB-231 cells, a human breast cancer line
# Knock-down reagent: single siRNA against human genes, 20 nM siRNA (0.8 pmol per well)
# Timing: 120 h (drug added 48 h after transfection, read 72 h later)
# Conditions: camptothecin 20 nM (about EC30) for 72 h; vehicle 0.1% DMSO in parallel plates
# Measured: 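CellTiter-Glo ATP signal, scaled to control siRNA as percent viability; sensitisation given as log2 of untreated divided by camptothecin-treated viability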
# Direction: log2 vehicle/camptothecin viability: higher = stronger sensitisation to camptothecin; viability with camptothecin: higher = more viable cells
# Call rule: 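Each gene scored by redundant siRNA activity (RSA) over its individual siRNA ratios; a gene is called active at p < 0.001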
# Here is an unselected part of about 26,000 deposited reagents. 167 of them (0.63%) were called active. 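Calls are per gene from RSA p-values that are not deposited; an individual active-marked siRNA can sensitise only weakly.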 Reagents against one gene are numbered here. Further read-outs or replicates are left out here.
gene symbol,siRNA no.,log2 vehicle/camptothecin viability,viability with camptothecin (% of control),Outcome
TFF1 (GeneID 7031),1,0.484,25.1,inactive
TFF1 (GeneID 7031),2,0.175,23.8,inactive
TFF1 (GeneID 7031),3,-0.0814,40.8,inactive
TFF1 (GeneID 7031),4,0.17,86.4,inactive
ANAPC7 (GeneID 51434),1,-0.398,75.8,inactive
ANAPC7 (GeneID 51434),2,-0.13,77.6,inactive
ANAPC7 (GeneID 51434),3,-0.191,99.3,inactive
ANAPC7 (GeneID 51434),4,-0.167,85.7,inactive
IRS2 (GeneID 8660),1,-0.431,86,inactive
IRS2 (GeneID 8660),2,-0.0224,90.3,inactive
IRS2 (GeneID 8660),3,0.0621,89.1,inactive
ACVR1B (GeneID 91),1,-0.154,59.7,inactive
ACVR1B (GeneID 91),2,-0.0155,67.9,inactive
ACVR1B (GeneID 91),3,0.0139,105,inactive
ACVR1B (GeneID 91),4,-0.212,88.3,inactive
ABCB8 (GeneID 11194),1,0.204,53.9,inactive
ABCB8 (GeneID 11194),2,-0.512,54.9,inactive
ABCB8 (GeneID 11194),3,0.0688,84.6,inactive
ABCB8 (GeneID 11194),4,-0.1,48,inactive
LAMA1 (GeneID 284217),1,0.127,84.2,inactive
LAMA1 (GeneID 284217),2,-0.108,98.5,inactive
LAMA1 (GeneID 284217),3,-0.257,105,inactive
LAMA1 (GeneID 284217),4,0.381,76.3,inactive
RBCK1 (GeneID 10616),1,-0.224,35.9,inactive
RBCK1 (GeneID 10616),2,0.0571,18.9,inactive
RBCK1 (GeneID 10616),3,-0.0725,90.6,inactive
DHRS7B (GeneID 25979),1,-0.524,81.2,inactive
DHRS7B (GeneID 25979),2,-0.314,88.3,inactive
DHRS7B (GeneID 25979),3,-0.419,75.2,inactive
DHRS7B (GeneID 25979),4,-0.138,72,inactive
XCR1 (GeneID 2829),1,-0.132,81.2,inactive
XCR1 (GeneID 2829),2,-0.289,89.4,inactive
XCR1 (GeneID 2829),3,0.00232,84.8,inactive
XCR1 (GeneID 2829),4,-0.178,105,inactive
HEXB (GeneID 3074),1,-0.118,99.6,inactive
HEXB (GeneID 3074),2,-0.126,33.8,inactive
HEXB (GeneID 3074),3,-0.376,44.2,inactive
HEXB (GeneID 3074),4,-0.409,72.1,inactive

Continued; the last 8 above are carried over.
gene symbol,siRNA no.,log2 vehicle/camptothecin viability,viability with camptothecin (% of control),Outcome
XCR1 (GeneID 2829),1,-0.132,81.2,inactive
XCR1 (GeneID 2829),2,-0.289,89.4,inactive
XCR1 (GeneID 2829),3,0.00232,84.8,inactive
XCR1 (GeneID 2829),4,-0.178,105,inactive
HEXB (GeneID 3074),1,-0.118,99.6,inactive
HEXB (GeneID 3074),2,-0.126,33.8,inactive
HEXB (GeneID 3074),3,-0.376,44.2,inactive
HEXB (GeneID 3074),4,-0.409,72.1,inactive
COMT (GeneID 1312),1,-0.148,104,inactive
COMT (GeneID 1312),2,-0.555,37.6,inactive
COMT (GeneID 1312),3,0.00225,113,inactive
C1D (GeneID 10438),1,-0.0499,93.6,inactive
C1D (GeneID 10438),2,-0.125,108,inactive
C1D (GeneID 10438),3,0.218,59.9,inactive
C1D (GeneID 10438),4,-0.198,31.3,inactive
OSMR (GeneID 9180),1,-0.21,44.6,inactive
OSMR (GeneID 9180),2,-0.445,7.49,inactive
OSMR (GeneID 9180),3,-0.117,71.5,inactive
RBM10 (GeneID 8241),1,0.0894,92.5,inactive
RBM10 (GeneID 8241),2,-0.0779,62.3,inactive
RBM10 (GeneID 8241),3,-0.31,85.8,inactive
NAA10 (GeneID 8260),1,-0.449,74.3,inactive
NAA10 (GeneID 8260),2,-0.583,81.3,inactive
NAA10 (GeneID 8260),3,-0.475,87.8,inactive
NAA10 (GeneID 8260),4,-0.268,4,inactive
PLOD1 (GeneID 5351),1,-0.33,43.3,inactive
PLOD1 (GeneID 5351),2,0.383,54.4,inactive
PLOD1 (GeneID 5351),3,-0.333,78.8,inactive
PLOD1 (GeneID 5351),4,-0.104,96.5,inactive
OR4D1 (GeneID 26689),1,-0.141,69.7,inactive
OR4D1 (GeneID 26689),2,-0.629,97.1,inactive
OR4D1 (GeneID 26689),3,-0.377,75.3,inactive
OR4D1 (GeneID 26689),4,-0.053,56.3,inactive
AKR7A2 (GeneID 8574),1,-0.198,90.8,inactive
AKR7A2 (GeneID 8574),2,-0.559,71.8,inactive
AKR7A2 (GeneID 8574),3,0.311,80.7,inactive
AKR7A2 (GeneID 8574),4,-0.247,61.7,inactive
TNFAIP8 (GeneID 25816),1,-0.516,47.4,inactive
TNFAIP8 (GeneID 25816),2,-0.0766,93.1,inactive
TNFAIP8 (GeneID 25816),3,-0.216,115,inactive
TNFAIP8 (GeneID 25816),4,0.211,78.3,inactive
CCNK (GeneID 8812),1,-0.23,45.4,inactive
CCNK (GeneID 8812),2,0.431,33,inactive
CCNK (GeneID 8812),3,-0.143,11.4,inactive
CCNK (GeneID 8812),4,0.116,54.9,inactive
ENPP3 (GeneID 5169),1,-0.264,107,inactive
ENPP3 (GeneID 5169),2,-0.368,79.2,inactive
ENPP3 (GeneID 5169),3,-0.526,100,inactive
ENPP3 (GeneID 5169),4,-0.123,21.9,inactive
SLC6A6 (GeneID 6533),1,-0.0419,113,inactive
SLC6A6 (GeneID 6533),2,0.401,86.7,inactive
SLC6A6 (GeneID 6533),3,0.158,115,inactive
SLC6A6 (GeneID 6533),4,0.372,82.1,inactive
PRF1 (GeneID 5551),1,-0.181,96.1,inactive
PRF1 (GeneID 5551),2,-0.0104,51.6,inactive
PRF1 (GeneID 5551),3,0.0117,36.4,inactive
PRF1 (GeneID 5551),4,-0.718,97.3,inactive
